From PMC4606566
Results are given in words; binding and its absence hold for the method and conditions named. Binding seen in cells or lysates may run through a third protein. For some assays here: Binding can be weak; no strength is given.

What was measured:
[1] = molecular target: T1, PIMT (PRIP Interacting protein with Methyl Transferase domain) (rat (endogenous in L6)) (UniProt P85107); test: co-IP; TNF-α treated L6 myoblasts (2 ng/ml); 4 mg lysate (120 mM NaCl, 1% Triton X-100, 20 mM Tris-HCl pH 7.5, 10% glycerol, 2 mM EDTA) immunoprecipitated with anti-PIMT, blotted for Med-1, PGC-1α and MEF2A
T1 sequence: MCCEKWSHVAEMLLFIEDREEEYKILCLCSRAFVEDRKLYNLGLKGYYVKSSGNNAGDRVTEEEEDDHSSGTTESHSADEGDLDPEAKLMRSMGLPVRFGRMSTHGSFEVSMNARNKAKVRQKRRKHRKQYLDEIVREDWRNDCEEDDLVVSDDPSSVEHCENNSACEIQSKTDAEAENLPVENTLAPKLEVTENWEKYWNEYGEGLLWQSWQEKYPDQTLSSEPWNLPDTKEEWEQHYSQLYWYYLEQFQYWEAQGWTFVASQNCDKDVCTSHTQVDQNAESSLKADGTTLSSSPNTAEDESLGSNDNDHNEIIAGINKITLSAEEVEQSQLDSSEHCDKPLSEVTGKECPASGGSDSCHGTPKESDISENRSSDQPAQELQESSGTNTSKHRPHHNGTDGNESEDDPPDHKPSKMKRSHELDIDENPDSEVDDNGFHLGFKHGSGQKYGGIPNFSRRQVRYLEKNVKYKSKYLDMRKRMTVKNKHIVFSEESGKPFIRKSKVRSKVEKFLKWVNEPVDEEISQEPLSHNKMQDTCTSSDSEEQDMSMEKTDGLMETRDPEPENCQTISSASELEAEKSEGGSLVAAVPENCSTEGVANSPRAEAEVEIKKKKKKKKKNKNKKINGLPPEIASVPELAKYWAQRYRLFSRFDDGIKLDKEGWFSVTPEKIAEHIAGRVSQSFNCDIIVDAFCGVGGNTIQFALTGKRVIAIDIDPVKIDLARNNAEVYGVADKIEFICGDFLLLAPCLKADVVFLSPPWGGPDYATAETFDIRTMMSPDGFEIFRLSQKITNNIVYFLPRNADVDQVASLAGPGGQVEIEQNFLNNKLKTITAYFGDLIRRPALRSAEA

[2] = molecular target: T1, PIMT (PRIP Interacting protein with Methyl Transferase domain) (rat (endogenous in L6)); test: co-IP; un-stimulated L6 myoblasts; 4 mg lysate (120 mM NaCl, 1% Triton X-100, 20 mM Tris-HCl pH 7.5, 10% glycerol, 2 mM EDTA) immunoprecipitated with anti-PIMT, blotted for Med-1, PGC-1α and MEF2A

binding [2]: binds
Substance: Med1 (rat (endogenous in L6))
binding [1]: no binding (only in TNF-α exposed L6 myoblasts)
